# Results as given in PubChem BioAssay AID504444 (National Center for Advancing Translational Sciences (NCATS), 2011).
# The campaign covered roughly 360,000 compounds. About 7,500 (2.1%) were called active. The inconclusive results got no clear call from the source; some entries with a clear call stand among them for comparison. The call rests on the fitted dose curve; in most records, active means well fitted inhibition curve with a large enough effect; inconclusive means small, poorly fitted or top-dose-only effect, or effect the other way; inactive means flat fitted curve, though single readings scatter. Where the call is inconclusive, the potency comes from a doubtful curve fit.
# Assay: Nrf2 qHTS screen for inhibitors; further: nearly all actives have a fitted effect of over 60% in size
# Conditions: A549 ARE-Fluc reporter, luciferase luminescence, 18-24 h; activity change, negative = inhibition: at 46 µM (top of the series)
# Outline: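 Quantitative HTS in A549 cells stably bearing an antioxidant response element-firefly luciferase construct. Inhibition of Nrf2-driven transcription was scored by luminescence after 18-24 h of compound exposure at 37 °C.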
# On the % scale 0 is the no-effect control and ±100 the full control effect; potency means the concentration at half of the fitted maximal effect.
SMILES,Potency,"activity change, negative = inhibition"
COc1ccc(CNc2ncnc3c2nc2n3CCCC2)cc1,"inconclusive: 29.1 µM [falling, single point]",
COCCn1c(C)cc(C(=O)COC(=O)c2ccccc2Br)c1C,"inconclusive: 14.6 µM [activator, partial curve, poor fit]",
O=C(CSc1nc(-c2ccccc2)nn1C(=O)c1ccccc1)Nc1cccc([N+](=O)[O-])c1,"inconclusive: 16.4 µM [falling, single point]",
Fc1ccc2nc3c(nc2c1)CCCC3,"inconclusive: 10.3 µM [activator, partial curve]",
Cc1cccc(CNC(=O)Cn2c(-c3cccs3)cc3ccccc32)c1,,inactive: -2.33%
COCC(C)NC(=S)NC(=O)c1cc(S(=O)(=O)N2CCOCC2)ccc1C (stereo not drawn),"inconclusive: 32.6 µM [falling, single point]",
Cc1ccc(C)c(NC(=S)NNC(=O)c2csc3c2CCC(C)C3)c1 (stereo not drawn),active: 20.6 µM,
O=C(Nc1ccc(Cc2ccncc2)cc1)c1ccc([N+](=O)[O-])o1,,inactive: 0.16%
O=C(COC(=O)c1cc([N+](=O)[O-])ccc1NCc1ccccc1)NC1CCCCC1,"inconclusive: 13 µM [activator, partial curve, poor fit]",
CCN(CC)c1ccc(NC2CC(=O)N(CCc3ccc(OC)cc3)C2=O)cc1 (stereo not drawn),,inactive: 6.02%
COc1cc(OC)cc(C(=O)NC(=S)NNC(=O)c2cnccn2)c1,"inconclusive: 8.2 µM [falling, partial curve, poor fit]",
CC1CCc2c(C(=O)Nc3ccccn3)csc2C1 (stereo not drawn),"inconclusive: 6.51 µM [activator, partial curve]",
CCOc1ccc(CN2CCN(C(=O)c3ccccc3)CC2)cc1,"inconclusive: 16.4 µM [falling, partial curve]",
COCCn1cc(C(=O)N2CCN(C)CC2)c2c3ccccc3n(C)c2c1=O,,inactive: 6.52%
O=C(Cn1cnc2c(nnn2Cc2ccc(F)cc2)c1=O)Nc1ccc2c(c1)OCCO2,"inconclusive: 29.1 µM [falling, single point]",
CCOC(=O)C1=C(C)NC2=C(C1c1ccc([N+](=O)[O-])cc1)S(=O)(=O)c1ccccc12 (stereo not drawn),,inactive: -18.1%
O=C(O)C1CCCN(S(=O)(=O)c2cccc3cccnc23)C1 (stereo not drawn),,inactive: -8.34%
Cc1cc(/C=C2\NC(=S)N(C)C2=O)ccc1N1CCCC1,"inconclusive: 0.0065 µM [activator, full curve, poor fit]",
Oc1ccc(Cl)cc1C1=Nc2ccccc2N=C(c2ccccc2)C1,"inconclusive: 13 µM [activator, partial curve, poor fit]",
COc1ccc(-c2nnc(N3CCOCC3)c3ccccc23)cc1,"inconclusive: 8.2 µM [falling, partial curve]",
CCOc1ccc(CCNC(=O)c2ccc(OCc3c(C)noc3C)cc2)cc1OCC,"inconclusive: 29.1 µM [falling, single point]",
COc1ccc(OC)c(NC(=O)c2ccc(CN3CCc4ccccc4C3)cc2)c1,"inconclusive: 29.1 µM [falling, single point]",

SMILES,Potency,"activity change, negative = inhibition"
Cc1ccc(CNC(=O)C23CN(Cc4ccccc4)CC2C(c2ccc([N+](=O)[O-])cc2)=NO3)o1 (stereo not drawn),"inconclusive: 6.51 µM [activator, single point]",
Nc1nonc1OCCN1CCN(c2ccc([N+](=O)[O-])c3cccnc23)CC1,"inconclusive: 7.31 µM [falling, partial curve]",
O=S(=O)(c1cc(F)ccc1F)N1CCN2CCCC2C1 (stereo not drawn),"inconclusive: 6.51 µM [falling, partial curve, poor fit]",
CCOc1ccc(-c2c[n+]3c(n2-c2ccccc2)CCCCC3)cc1,active: 0.92 µM,
CCN(CC)CCN1C(=O)c2cccc3cc(N)cc(c23)C1=O,"inconclusive: 29.1 µM [falling, single point]",
COc1ccc(OC)c(C2=NS(=O)(=O)N(C)C(C(=O)NCc3cccs3)=C2)c1,"inconclusive: 23.1 µM [falling, single point]",
O=C(CSc1nncs1)Nc1ccc(N2CCCCC2)cc1,,inactive: -4.39%
Cc1cc(C)n(CC(=O)NC2CCCN(Cc3ccc(Cl)cc3)C2)n1 (stereo not drawn),"inconclusive: 20.6 µM [falling, partial curve, poor fit]",
CCn1cc(CN2CCC(n3nccc3NC(=O)CCOc3ccccc3)CC2)c(C)n1,,inactive: -10.9%
CC1(C)CC[C@]2(C(=O)O[C@@H]3O[C@H](CO)[C@@H](O)[C@H](O)[C@H]3O)CC[C@]3(C)C(=CCC4[C@@]5(C)CC[C@H](O[C@@H]6O[C@H](C(=O)O)[C@@H](O[C@H]7OC[C@@H](O)[C@@H](O)[C@@H]7O)[C@H](O)[C@H]6O)C(C)(C)C5CC[C@]43C)[C@@H]2C1 (stereo partly drawn),,inactive: 13.7%
CCOC(=O)N/N=C/c1c(C)nn(-c2cccc(C(F)(F)F)c2)c1Cl,"inconclusive: 23.1 µM [falling, partial curve, poor fit]",
CC(=O)OCCCNc1cc(Sc2ccc(C)cc2)c2nonc2c1[N+](=O)[O-],,inactive: -40.5%
O=C(c1ccccc1)c1ccc(N2CCCC2)cc1,"inconclusive: 11.6 µM [activator, partial curve, poor fit]",
COc1ccc(CCNC(=O)CCc2c(C)c3cc4c(C)c(C)oc4cc3oc2=O)cc1OC,,inactive: 6.2%
O=C(Cn1ncn2c(cc3sccc32)c1=O)NCCc1ccccc1,,inactive: 1.11%
C[C@@H]1CC=C[C@H]2[C@H]1C(=O)N(Cc1ccccc1)[C@H]2c1ccc2ccccc2c1Br,"inconclusive: 23.1 µM [falling, partial curve]",
Cc1ccc2c(=O)cc(C(=O)Nc3ccc(S(=O)(=O)N(C)c4ccccc4)cc3)oc2c1C,,inactive: 22.1%
O=C(NC(=S)Nc1ccccn1)c1ccc([N+](=O)[O-])cc1,"inconclusive: 0.411 µM [activator, full curve]",
CCCn1c(NC(=O)c2ccccc2)nc2ccccc21,,inactive: -10.3%
CCN(CC)S(=O)(=O)c1ccc(Cl)c(NC(=S)NC(=O)C2CCCC2)c1,active: 8.2 µM,
C=CCn1c(=O)c2ccccc2n2c(SCC(=O)NCc3cccs3)nnc12,"inconclusive: 25.9 µM [activator, single point]",

# Look-ups from the results shown:
# activity change, negative = inhibition, CC(=O)OCCCNc1cc(Sc2ccc(C)cc2)c2nonc2c1[N+](=O)[O-] is entered as inactive: -40.5%
# Potency, Cc1ccc(CNC(=O)C23CN(Cc4ccccc4)CC2C(c2ccc([N+](=O)[O-])cc2)=NO3)o1 (stereo not drawn) is entered as inconclusive: 6.51 µM [activator, single point]
